Results are given in words; binding and its absence hold for the method and conditions named. A result given as binding can be weak or reduced; the word gives no strength.

Our source for the binding values is PMC12167954.

In the test the target is T1, prothymosin α (ProTα) (UniProt P06454).
T1 sequence: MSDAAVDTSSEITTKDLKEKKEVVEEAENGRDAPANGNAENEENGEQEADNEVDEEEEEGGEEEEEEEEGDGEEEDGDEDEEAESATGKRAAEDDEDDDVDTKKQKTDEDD
The experiment in a line: associative phase separation (complex coacervation; brightfield microscopy and coexistence measurements of dense and dilute phases); ProTα mixed with a polycation at charge balance in TEK buffer; images at 90 mM KCl (ionic strength 98 mM); phase diagrams as a function of salt concentration; both purified.

Consider protamine, for which the binding result is recorded as “binds”.
